Reference: PubChem BioAssay AID504786 (Drosophila RNAi Screening Center, 2011)

- Assay: 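Knock-downs reducing HIF reporter induction by the iron chelator DFO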 (primary screen)
- Cell system: Drosophila S2 cells with a stable HIF luciferase reporter
- Knock-down reagent: long dsRNA against Drosophila genes, about 0.2 µg dsRNA per well of a 384-well plate
- Duration: three days of knock-down, then 20 h of DFO before reading
- Treatment: desferrioxamine (DFO) at 100 µM, an iron chelator that mimics hypoxia, for 20 h
- Detection: 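HIF reporter luminescence in cells given 100 µM DFO for 20 h, using the mouse ldh-a hypoxia-response element, scored as per-plate z-scores; higher means greater loss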
- Reading the numbers: z-score: higher = stronger loss of HIF reporter signal
The screen tested about 21,000 reagents; this is a random part of those that have a named target and a result. 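Primary screen; positive scores mean lost reporter signal, so the sign may be inverted from the usual convention.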 Reagents against one gene are numbered here. A plus sign joins genes that one reagent is predicted to hit. Further read-outs or replicates are left out here.

z-score, replicate 1, by gene knocked down and reagent
Gr77a: #1 0.1
Fkbp12: #1 -0.4
Rtca: #1 -0.2
RasGAP1: #1 -0.5
CG34260 + cmpy: #1 -0.1
Aprt: #1 -0.3
Rac2: #1 1.1
CG8003: #1 -0.3
CG5641: #1 -0.3
DCAF12: #1 -0.2
sca: #1 -0.4
CG6660: #1 -0.2
CG32650: #1 -0.2
BtbVII: #1 0.9; #2 -0.3
CG15167: #1 -0.2
MagR: #1 0
smp-30: #1 -0.2
Rab32: #1 0; #2 -0.4
CG7728: #1 -0.3
Sox14: #1 -0.5
Lap1: #1 -0.2
Rpt5: #1 8.5
CG2656: #1 -0.4
CG11382: #1 -0.4
Cyp12a5: #1 -1.1
ppk3: #1 -0.2
CG4199: #1 -0.2

11 neighbouring records already listed:
z-score, replicate 1, by gene knocked down and reagent
CG6660: #1 -0.2
CG32650: #1 -0.2
BtbVII: #1 0.9; #2 -0.3
CG15167: #1 -0.2
MagR: #1 0
smp-30: #1 -0.2
Rab32: #1 0; #2 -0.4
CG7728: #1 -0.3
Sox14: #1 -0.5

The list goes on.
z-score, replicate 1, by gene knocked down and reagent
IntS11: #1 -0.4
shv: #1 0.1
Set2: #1 0.7
CG2217 + CG42740: #1 -0.4
CG13589: #1 0.1
Jhbp4: #1 0
CG17564: #1 -0.4
CG14692: #1 -0.3
exex: #1 -0.2
CG7523: #1 -0.1
RpL34b: #1 0
CG33969 + fbl: #1 -0.2
Zip99C: #1 -0.3
loj: #1 -0.3
Taf9: #1 1.4
CG14024: #1 0.5; #2 -0.2
CG42673: #1 -0.1; #2 -0.5; #3 -0.4; #4 -0.4; #5 -0.1; #6 -0.3
PRL-1: #1 -0.3
CG12123: #1 -0.4
RpS28b: #1 4.6
grass: #1 -0.2
CG17362: #1 -0.2
MED11: #1 6.7
dpr2: #1 -0.3; #2 -0.3
CG32813: #1 -0.3
Trm1: #1 -0.3
AgmNAT: #1 -0.3
CG1236: #1 -0.4
Gapdh1: #1 -0.4
Lst: #1 -0.2
Ugt49B2: #1 0.5
Mmp1: #1 0
Cipc: #1 -0.3; #2 -0.5
ctrip: #1 -0.5; #2 -0.5
CG7546: #1 -0.3; #2 -0.4
CG32473: #1 0.1; #2 -0.1
CG12865 (retired record): #1 -0.2
CG10026: #1 -0.3
CG18518: #1 0.2
Aldh: #1 -0.2
CG3021: #1 -0.3; #2 -0.3
Ugt37A1: #1 -0.3
